For this assay, the system named is L1210 leukemia ip in BDF1 mice, survival T/C. Briefly: NCI In Vivo Anticancer Drug Screen. Data for tumor model L1210 Leukemia (intraperitoneal) in B6D2F1 (BDF1) mice. The following applies: T/C endpoint: mean survival time, higher T/C = longer survival.
[1] abbreviates: dose: 400.0 mg/kg/injection, schedule: Q01DX009 (ip), vehicle: saline with Tween-80.
Where [2] appears, read: dose: 80.0 mg/kg/injection, schedule: Q01DX001 (ip), vehicle: saline.
The mark [3] stands for this setting: dose: 200.0 mg/kg/injection, schedule: Q01DX001 (ip), vehicle: saline.
Where [4] appears, read: dose: 300.0 mg/kg/injection, schedule: Q01DX001 (ip), vehicle: other.
[5] abbreviates: dose: 400.0 mg/kg/injection, schedule: Q01DX001 (ip), vehicle: saline.
[6] abbreviates: dose: 400.0 mg/kg/injection, schedule: Q04DX003 (ip), vehicle: Klucel (hydroxypropylcellulose) (HPC).
The mark [7] stands for this setting: dose: 100.0 mg/kg/injection, schedule: Q04DX003 (ip), vehicle: saline with Tween-80.
Where [8] appears, read: dose: 100.0 mg/kg/injection, schedule: Q04DX003 (ip), vehicle: saline.
Where [9] appears, read: dose: 200.0 mg/kg/injection, schedule: Q04DX003 (ip), vehicle: saline with Tween-80.
Where [10] appears, read: dose: 400.0 mg/kg/injection, schedule: Q01DX009 (ip), vehicle: Klucel (hydroxypropylcellulose) (HPC).
Where [11] appears, read: dose: 400.0 mg/kg/injection, schedule: Q04DX003 (ip), vehicle: saline with Tween-80.
Where [12] appears, read: dose: 100.0 mg/kg/injection, schedule: Q01DX009 (ip), vehicle: Klucel (hydroxypropylcellulose) (HPC).

The list shows only some results of the screen, not a fair sample: it is rich in T/C values a quarter to a half above the control, in often repeated tests (any T/C) and in doses without a T/C. Further doses and runs are listed elsewhere. T/C is the treated group as % of the vehicle group. Some doses have a count of surviving animals in place of a T/C: the source holds a T/C of zero for them, seemingly a mark for toxic or unscored doses. Some survivor counts are full or nearly so, which does not show that the dose was tolerated: the source hardly ever lists a survival T/C far under the control, and the zero likely stands for such cases as well. Survivors were counted at the toxicity check, usually on the fifth day, unless a day is given; later deaths do not show. Schedules are NCI's codes, read here as Q, the interval in days (D) or hours (H), X, the number of doses. Some schedules carry Z or #; the key to these is not given. Some entries were tested several times; the results are listed from low to high. Some structures stand for samples that the source files as different forms (salt, stereo form or complex); doses refer to the form tested. Additions like (4×) stand for listed records that agree. For survival time, the PubChem record calls one and a half times the control and up active, and a quarter to a half above the control has no call in these data; cut-offs in other NCI protocols can differ.

On to `NC1CCC(OC(=O)C23CC4CC(CC(C4)C2)C3)CC1` (stereo not given), for which the survivor count was 1 of 6 (dose: 200.0 mg/kg/injection, schedule: Q01DX001 (ip), vehicle: saline with Tween-80) and 0 of 6 (dose: 400.0 mg/kg/injection, schedule: Q01DX001 (ip), vehicle: saline with Tween-80).

For `Nc1cnccc1NCCc1cccc(O)c1`, the survivor count (dose: 100.0 mg/kg/injection, schedule: Q01DX009 (ip), vehicle: saline with Tween-80) is recorded as 6 of 6 and the survivor count under setting [1] is 0 of 6.

`Nc1nc(SCc2ccccc2)c2ncn(C3OC(CO)CC3O)c2n1` (stereo not given): the T/C by setting is: (dose: 177.0 mg/kg/injection, schedule: Q01DX001 (ip), vehicle: carboxymethylcellulose (CMC)) 126 % of control; (dose: 200.0 mg/kg/injection, schedule: Q01DX001 (ip), vehicle: carboxymethylcellulose (CMC)) 125 % of control; (dose: 200.0 mg/kg/injection, schedule: Q01DX009 (ip), vehicle: other) 137 % of control; (dose: 266.0 mg/kg/injection, schedule: Q01DX001 (ip), vehicle: carboxymethylcellulose (CMC)) 136 % of control; (dose: 400.0 mg/kg/injection, schedule: Q01DX001 (ip), vehicle: carboxymethylcellulose (CMC)) 127 % of control.

`C[N+](C)(C)/N=C\C1CC=CCC1` (stereo not given): the survivor count reads like this: (dose: 100.0 mg/kg/injection, schedule: Q01DX009 (ip), vehicle: saline) 0 of 3; (dose: 200.0 mg/kg/injection, schedule: Q01DX009 (ip), vehicle: saline) 0 of 3.

With `O=C(NCCCNC(=O)Nc1cccc(C2=NCCCN2)c1)Nc1cccc(C2=NCCCN2)c1`, the survivor count (dose: 4.0 mg/kg/injection, schedule: Q01DX Z (ip), vehicle: carboxymethylcellulose (CMC)) was 0 of 6.

As for `CC1C(=O)c2cc3c(cc2CCN(C)Cc2c1ccc1c2OCO1)OCO3` (stereo not given), the survivor count (dose: 38.0 mg/kg/injection, schedule: Q01DX001 (ip), vehicle: other) was 1 of 6; the survivor count (dose: 75.0 mg/kg/injection, schedule: Q01DX001 (ip), vehicle: other) was 0 of 6; the survivor count under setting [2] was 2 of 4; the survivor count (dose: 100.0 mg/kg/injection, schedule: Q01DX001 (ip), vehicle: saline) is 1 of 4; the survivor count (dose: 150.0 mg/kg/injection, schedule: Q01DX001 (ip), vehicle: other) is recorded as 0 of 6; the survivor count under setting [3] is recorded as 0 of 4. Also, the survivor count by setting is: under setting [4], 0 of 6; under setting [5], 0 of 4.

As to `O=C(NCCCl)Nc1ccccc1`, the survivor count (dose: 400.0 mg/kg/injection, schedule: Q01DX001 (ip), vehicle: Klucel (hydroxypropylcellulose) (HPC)) is listed as 1 of 6 and the survivor count under setting [6] was 2 of 6.

Take `CC(C)C1=CC23CCC4C(C)(C(=O)O)CCCC4(C)C2CC1C1C(=O)N(CCCN(C)C)C(=O)C13` (stereo not given): under setting [4], the survivor count is recorded as 0 of 6.

As for `Cc1nc(N(C)C)c2cnn(-c3ccccc3)c2n1`, the survivor count is reported as 1 of 6 (dose: 200.0 mg/kg/injection, schedule: Q01DX009 (ip), vehicle: saline with Tween-80) and 0 of 6 (dose: 400.0 mg/kg/injection, schedule: Q01DX001 (ip), vehicle: acetone).

As to `C/C(=C\c1ccc(O)cc1)[N+](=O)[O-]`, for the setting “dose: 400.0 mg/kg/injection, schedule: Q04DX003 (ip), vehicle: acetone”, the survivor count is recorded as 0 of 6.

In the case of `CCCCc1ccc2nc(NC(=O)OC)[nH]c2c1`, the T/C is 139 % of control under setting [7], 125 % of control under setting [8] and 143 % of control under setting [9].

As to `Nc1nc2ncc(NCc3ccc(C(=O)NC(CCC(=O)O)C(=O)O)cc3)nc2c(=O)[nH]1` (stereo not given), the T/C is 92, 94, 97, 98 % of control under setting [8]; 95 (2×), 97, 104 % of control (dose: 200.0 mg/kg/injection, schedule: Q04DX003 (ip), vehicle: saline); 89, 97, 100, 125 % of control (dose: 400.0 mg/kg/injection, schedule: Q04DX003 (ip), vehicle: saline).

Take `c1ccc(N=NC(N=Nc2ccccc2)=P(c2ccccc2)(c2ccccc2)c2ccccc2)cc1`: the survivor count under setting [10] is reported as 2 of 6.

`O=C(Nc1ccc(C2=NCCN2)cc1)c1ccc(Cl)c(C(=O)Nc2ccc(C3=NCCN3)cc2)c1`: the survivor count reads like this: (dose: 1.87 mg/kg/injection, schedule: Q01DX Z (ip), vehicle: water) 0 of 6; (dose: 60.0 mg/kg/injection, schedule: Q01DX Z (ip), vehicle: saline) 0 of 6; (dose: 120.0 mg/kg/injection, schedule: Q01DX Z (ip), vehicle: saline) 0 of 6 (2×).

Take `Cc1ccc(N(O)C(=O)Nc2ccccc2)cc1`: under “dose: 400.0 mg/kg/injection, schedule: Q01DX015 (ip), vehicle: methylcellulose (MC)”, the survivor count was 5 of 6.

For `O=C1c2ccccc2C(=O)N1CCS(=O)(=O)Cl`, the survivor count (dose: 200.0 mg/kg/injection, schedule: Q01DX009 (ip), vehicle: carboxymethylcellulose (CMC)) is listed as 6 of 6.

`O=c1cc[nH]c2ccc(Cl)cc12`: the survivor count reads like this: under setting [3], 1 of 6; under setting [5], 0 of 6.

Consider `COc1cc(CC2C(O)C3CCN2CC3)cc(OC)c1OC` (stereo not given), for which the survivor count is, setting by setting: (dose: 200.0 mg/kg/injection, schedule: Q04DX002 (ip), vehicle: saline) 1 of 3; (dose: 400.0 mg/kg/injection, schedule: Q04DX002 (ip), vehicle: saline) 0 of 3.

With `CC1(C)C2CCC(=O)OC1CC2` (stereo not given), the survivor count under setting [2] is recorded as 1 of 4.

Consider `CC/C(=N\N=C(N)N)c1ccc(NC(N)=S)cc1`, for which the T/C (dose: 20.0 mg/kg/injection, schedule: Q01DX009 (ip), vehicle: saline) is 137 % of control. Besides, the survivor count was 3 of 6 (dose: 160.0 mg/kg/injection, schedule: Q01DX009 (ip), vehicle: saline) and 0 of 6 (dose: 320.0 mg/kg/injection, schedule: Q01DX009 (ip), vehicle: saline).

Take `CCCCCCCC[n+]1cccc(C#N)c1`: the survivor count (dose: 300.0 mg/kg/injection, schedule: Q01DX001 (ip), vehicle: saline) is 0 of 6.

On to `CCCCCCCCCCCC[N+](C)(C)CCn1cnc2c(N)ncnc21`, for which the survivor count under setting [7] was 0 of 4, the survivor count under setting [9] is 0 of 4 and the survivor count under setting [11] is listed as 0 of 4.

As for `CC(C)(C)Sc1ccncc1`, the survivor count under setting [1] is given as 0 of 6.

`CN(C)/N=C/c1ccc(N(C)C)cc1`: the survivor count is listed as 2 of 6 under setting [12]; 3 of 6 (dose: 100.0 mg/kg/injection, schedule: Q04DX003 (ip), vehicle: Klucel (hydroxypropylcellulose) (HPC)); 0 of 6 (dose: 200.0 mg/kg/injection, schedule: Q04DX003 (ip), vehicle: Klucel (hydroxypropylcellulose) (HPC)); 0 of 6 under setting [6].

On to `Cc1cnc(SCc2ccc(Cl)cc2)nc1N(C)C`, for which the survivor count (dose: 100.0 mg/kg/injection, schedule: Q01DX Z (ip), vehicle: methylcellulose (MC)) was 5 of 6 and the survivor count (dose: 200.0 mg/kg/injection, schedule: Q01DX Z (ip), vehicle: methylcellulose (MC)) was 5 of 6.

Turning to `CC1CCCCC1O` (stereo not given), the survivor count under setting [1] is given as 2 of 6.

Turning to `N/N=C1/CCN2CCCc3cccc1c32`, under setting [11], the survivor count is reported as 6 of 6.

For `Clc1nc(Br)[nH]c1Cl`, the survivor count reads like this: (dose: 12.5 mg/kg/injection, schedule: Q01DX009 (ip), vehicle: Klucel (hydroxypropylcellulose) (HPC)) 0 of 3; (dose: 25.0 mg/kg/injection, schedule: Q01DX009 (ip), vehicle: Klucel (hydroxypropylcellulose) (HPC)) 0 of 3; (dose: 50.0 mg/kg/injection, schedule: Q01DX009 (ip), vehicle: Klucel (hydroxypropylcellulose) (HPC)) 0 of 3; under setting [12], 0 of 3 and 0 of 6; (dose: 200.0 mg/kg/injection, schedule: Q01DX009 (ip), vehicle: Klucel (hydroxypropylcellulose) (HPC)) 0 of 6; under setting [10], 0 of 6.

Source of the values: PubChem BioAssay AID248 (DTP/NCI, 2004).
